Results taken from patent US11298561B2, “Method of treating multi-drug resistance biofilm using targeted laser and antibiotics” (priority 2013, dated 2022).
Some of these results come from one statement about several compounds together.

Test system: MRSA SA5120 biofilms
Format: cell-based, Staphylococcus aureus
Settings: antibiotic alone, 100 μg/mL, 24 h
Procedure: Two MDR clinical wound isolates, namely, methicillin-resistant S. aureus (MRSA) SA5120 and P. aeruginosa PA 60-65, were received as gifts from a repository at the U.S. Army Institute of Surgical Research (JBSA-Fort Sam Houston, Tex.). Biofilms were established on 5-mm glass discs or in 96-well half-area glass-bottom plates that had been pre-treated for 24 h with 1 mg/mL of fibrinogen. Overnight cultures of SA5120 in tryptic soy broth (TSB) were diluted to an optical density at 600 nm (OD600) of 0.1 using TSB supplemented with 10% human plasma, added to empty wells of a 96-well glass-bottom culture plate or to wells containing 5-mm glass discs, and allowed to grow into biofilms for 24 h at 37° C. under static conditions. […]
MRSA biofilms in 96-well glass-bottom plates or on 5-mm glass discs were pre-treated with increasing concentrations of tGNPs from 0-100 μg/mL in PBS for 2 h. […] After exposure, samples were analyzed using confocal microscopy or colony forming unit (CFU) assays.
Biofilms grown on glass discs were pre-treated with tGNPs or non-targeted GNPs at 70 μg/mL in PBS for 2 h (SA5120) or 1 h (PA 60-65). […] After treatment, samples were analyzed using confocal microscopy, CFU assays, or scanning electron microscopy (SEM). […]

## CN[C@H](CC(C)C)C(=O)N[C@H]1C(=O)N[C@@H](CC(N)=O)C(=O)N[C@H]2C(=O)N[C@H]3C(=O)N[C@H](C(=O)N[C@H](C(=O)O)c4cc(O)cc(O)c4-c4cc3ccc4O)[C@H](O)c3ccc(c(Cl)c3)Oc3cc2cc(c3O[C@@H]2O[C@H](CO)[C@@H](O)[C@H](O)[C@H]2O[C@H]2C[C@](C)(N)[C@H](O)[C@H](C)O2)Oc2ccc(cc2Cl)[C@H]1O [vancomycin, Vancomycin]
  reduction in MRSA biofilm viability (CFU): < 1 log
